# Source: patent US20100273676A1 (GENERAL HOSPITAL, published 2010)
# By UniProt entry, the sequences of proteins in these tests, tags left out. Where a name states a change or a piece, a line headed by the entry shows the natural chain unless it says otherwise. Residues count along the entry.
# UniProt P19659: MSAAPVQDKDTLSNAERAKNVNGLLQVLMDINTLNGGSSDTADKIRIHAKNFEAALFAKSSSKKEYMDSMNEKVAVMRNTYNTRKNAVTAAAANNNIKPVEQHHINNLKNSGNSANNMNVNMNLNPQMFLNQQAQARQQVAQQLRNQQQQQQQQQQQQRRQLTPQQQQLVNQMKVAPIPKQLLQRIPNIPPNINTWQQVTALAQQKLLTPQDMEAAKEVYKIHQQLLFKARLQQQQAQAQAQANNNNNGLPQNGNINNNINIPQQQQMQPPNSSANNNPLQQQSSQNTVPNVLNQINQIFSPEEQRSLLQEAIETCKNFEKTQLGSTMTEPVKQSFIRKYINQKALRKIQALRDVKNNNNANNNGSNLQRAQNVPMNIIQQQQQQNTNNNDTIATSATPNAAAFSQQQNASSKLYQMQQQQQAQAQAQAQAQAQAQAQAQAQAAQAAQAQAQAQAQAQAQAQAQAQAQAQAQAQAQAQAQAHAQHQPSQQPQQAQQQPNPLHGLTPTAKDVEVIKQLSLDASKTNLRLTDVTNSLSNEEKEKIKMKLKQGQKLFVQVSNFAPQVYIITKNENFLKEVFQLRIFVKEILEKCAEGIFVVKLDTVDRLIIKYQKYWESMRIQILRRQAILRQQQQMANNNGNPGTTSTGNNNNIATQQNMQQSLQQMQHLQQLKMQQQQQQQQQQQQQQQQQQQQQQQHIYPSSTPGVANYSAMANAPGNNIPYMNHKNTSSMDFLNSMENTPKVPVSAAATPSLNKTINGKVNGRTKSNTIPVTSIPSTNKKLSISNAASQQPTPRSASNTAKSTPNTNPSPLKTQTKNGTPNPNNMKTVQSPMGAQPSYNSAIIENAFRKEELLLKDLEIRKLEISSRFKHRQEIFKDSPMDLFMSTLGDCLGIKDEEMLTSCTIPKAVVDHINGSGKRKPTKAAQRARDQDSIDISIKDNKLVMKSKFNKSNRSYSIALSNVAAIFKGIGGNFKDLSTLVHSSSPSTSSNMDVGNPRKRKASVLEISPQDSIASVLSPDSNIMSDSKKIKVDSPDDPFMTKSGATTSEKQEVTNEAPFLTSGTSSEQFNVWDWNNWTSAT
# GST-Gal11p KIX (amino acids 1-100): residues 1-100 of P19659
# Gal11p KIX domain (S. cerevisiae): residues 6-90 of P19659
# UniProt Q96RN5, residues 5-78: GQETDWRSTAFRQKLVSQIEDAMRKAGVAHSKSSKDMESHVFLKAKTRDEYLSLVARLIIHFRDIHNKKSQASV
# These are yes or no findings as the source states them, for the method shown. For some of these results: Binding seen in cells or lysates may run through a third protein. Some results given as binding are weak or reduced against the parent protein; the word gives no strength. For some of these results: Tags and fused reporters may be left off the sequences shown.
# B1: Myc6-Pdr1p (N-terminal Myc-tagged full-length wild-type S. cerevisiae Pdr1p) (protein)
# chain: MRGLTPKNGVHIETGPDTESSADSSNFSTGFSGKIRKPRSKVSKACDNCRKRKIKCNGKFPCASCEIYSCECTFSTRQGGARIKNLHKTSLEGTTVQVKEETDSSSTSFSNPQRCTDGPCAVEQPTKFFENFKLGGRSSGDNSGSDGKNDDDVNRNGFYEDDSESQATLTSLQTTLKNLKEMAHLGTHVTSAIESIELQISDLLKRWEPKVRTKELATTKFYPNKSIETQLMKNKYCDVVHLTRYAAWSNNKKDQDTSSQPLIDEIFGLYSPFQFLSLQGIGKCFQNYRSKSKCEIFPRTAKETIYIMLRFFDVCFHHINQGCVSIANPLENYLQKMNLLPSTPSSISSAGSPNTAHTKSHVALVINHLPQPFVRNITGISNSELLSEMNNDISMFGILLKMLDMHKNSYQNFLMEITSNPSVAKNTQSIDVLQEFIHYCQAGEALIALCYSYYNSTLYNYVDFTCDITHLEQLLYFLDLLFWLSEIYGFEKVLNVAVHFVSRVGLSRWEFYVGLDENFAERRRNLWWKAFYFEKTLASKLGYPSNIDDSKINCLLPKNFRDVGFLDNRDFIENVHLVRRSEAFDNMCISDLKYYGELAVLQIVSHFSSSVLFNEKFTSIRNTSKPSVVREKLLFEVLEIFNETEMKYDAIKEQTGKLFDIAFSKDSTELKVSREDKIMASKFVLFYEHHFCRMVNESDNIVARLCVHRRPSILIENLKIYLHKIYKSWTDMNKILLDFDNDYSVYRSFAHYSISCIILVSQAFSVAEFIKVNDVVNMIRVFKRFLDIKIFSENETNEHVFNSQSFKDYTRAFSFLTIVTRIMLLAYGESSSTNLDVISKYIDENAPDLKGIIELVLDTNSCAYRFLLEPVQKSGFHLTVSQMLKNRKFQEPLMSNEDNKQMKHNSGKNLNPDLPSLKTGTSCLLNGIESPQLPFNGRSAPSPVRNNSLPEFAQLPSFRSLSVSDMINPDYAQPTNGQNNTQVQSNKPINAQQQIPTSVQVPFMNTNEINNNNNNNNNNKNNINNINNNNSNNFSATSFNLGTLDEFVNNGDLEDLYSILWSDVYPDS
# Columns and labels:
# [1] = molecular target: Gal11p KIX domain (S. cerevisiae) (S. cerevisiae) (UniProt P19659); assay: mapping studies (data not shown)
# [2] = molecular target: human ARC105/MED15 KIX domain (human) (UniProt Q96RN5); assay: NMR titration
# [3] = molecular target: Gal11p KIX domain (S. cerevisiae) (S. cerevisiae) (UniProt P19659); assay: NMR chemical shift analysis
# [4] = molecular target: GST-Gal11p KIX (amino acids 1-100) (S. cerevisiae) (UniProt P19659); assay: GST pulldown
# [5] = molecular target: Gal11p-Flag2 (C-terminal Flag-tagged full-length S. cerevisiae Gal11p) (S. cerevisiae) (UniProt P19659); assay: co-immunoprecipitation
# [6] = molecular target: GST-Gal11p KIX (amino acids 1-100) (S. cerevisiae) (UniProt P19659); assay: GST pulldown, anti-Myc immunoblot
# [7] = molecular target: Gal11p-Flag2 (C-terminal Flag-tagged full-length S. cerevisiae Gal11p) (S. cerevisiae) (UniProt P19659); assay: co-immunoprecipitation, anti-Flag IP, anti-Myc blot
molecule,measurement,setting,value
Pdr1pAD (C-terminal Pdr1p sequences containing the activation domain) (from UniProt P12383 879-1068),binding,[1],binds
Pdr1pAD-34 (C-terminal 34 amino acids of the S. cerevisiae Pdr1p activation domain) (from UniProt P12383 1035-1068) (peptide),binding,[2],binds
same,binding,[3],binds
B1,binding,[4],binds
same,binding,[5],binds
same,binding,[6],binds
same,binding,[7],binds
